Test results published in patent US20220362275A1, “Method and Compositions for Treating Glioblastoma” (PHOENIX BIOTECHNOLOGY, INC., priority 2019, published 2022).
Read-outs that look alike come from different tables or passages of the source. At least one compound was matched to its structure with a doubt left. Some entries share one result that the patent states for a list of compounds.

Experiments:
GBM [1] = conditions: cited from earlier work
GBM [2] = conditions: surgical resection, RT plus concomitant and maintenance TMZ; cited from earlier work
GS28 stem cell line = experiment: High throughput growth/viability assay (Cell Titer Glo-3D), GS28; format: cell-based; conditions: FIG. 17D; for concentrations at which activity is exhibited: greater than 1×10^−5.25
Method: (§1) A total of 500 GBM9 cells or 1,000 GS28 cells per well suspended in 50 ul of media are seeded into Greiner Black 384-well plates (Cat #781091) using Multidrop Combi liquid dispenser (ThermoFisher).
(§2) The cells are allowed to recover and form a monolayer overnight at 37 C in a humidified chamber with 5% CO2.
(§3) After recovery, 50 nl of each drug are transferred into well using an Echo 550 acoustic dispensing platform (Labcyte).
(§4) In the combination screen, two or three drugs are tested with a fixed volume of DMSO ([…]) and two biological replicates. Each assay plate contains a fixed concentration of drug in addition to a negative control (0.1% DMSO), a positive control (10 uM Doxorubicin), and an 8-point dose response curve of the positive controls. Each well image is taken using the ImageXpress Micro Conforcal High Content Imaging System (MolecularDevices) everyday four times.
(§5) After 72 hr incubation in the presence of drug, plates are aspirated for left 25 ul and then, 25 ul of Cell Titer Glo-3D (Promega) are added and incubated for 20 minutes. Assay plates are read on the Synergy Neo2 Hybrid Multi-Mode Microplate Reader (BioTek).

GBM9 stem cell line = experiment: High throughput growth/viability assay (Cell Titer Glo-3D), GBM9; format: cell-based; conditions: FIG. 17E; for concentrations at which activity is exhibited: greater than 1×10^−5
Method: as §1, §2, §3, §4, §5

SMILES | median OS (GBM [1]; ddTMZ arm (75-100 mg/m^2 days 1 through 21 of a 28-day cycle)) [months] | median PFS (GBM [1]; ddTMZ arm) [months] | median OS (GBM [1]; sdTMZ arm after concomitant RT-TMZ) [months] | median PFS (GBM [1]; sdTMZ arm) [months] | 2-year survival rate (GBM [2]) | median survival from initial diagnosis (GBM [2]) | concentrations at which activity is exhibited (GS28 stem cell line) | concentrations at which activity is exhibited (GBM9 stem cell line) | activity at concentrations below about 5.6 microM (GS28 stem cell line) | activity at concentrations below about 10 microM (GBM9 stem cell line)
Cn1nnc2c(C(N)=O)ncn2c1=O [TMZ, temozolomide] | 14.9 | 6.7 | 16.6 | 5.5 | 26-33% | less than 15 months | – | – | – | –
C[C@H]1[C@H](C)CC[C@]2(C(=O)O)CC[C@]3(C)C(=CC[C@@H]4[C@@]5(C)CC[C@H](O)C(C)(C)[C@@H]5CC[C@]43C)[C@H]12 [Ursolic acid, ursolic acid] | – | – | – | – | – | – | greater than 5.6 microM | greater than 10 microM | – | –
C=C(C)[C@@H]1CC[C@]2(C(=O)O)CC[C@]3(C)[C@H](CC[C@@H]4[C@@]5(C)CC[C@H](O)C(C)(C)[C@@H]5CC[C@]43C)[C@@H]12 [betulinic acid] | – | – | – | – | – | – | greater than 5.6 microM | greater than 10 microM | little to no activity | little to no activity
